No constants are given. Whether binding was seen depends on the method and setting. Some binding calls cover weakened binding; strength is not graded here.
T1: MAdCAM (analyte of the BIAcore experiment) (UniProt Q13477)
T1 sequence (looked up): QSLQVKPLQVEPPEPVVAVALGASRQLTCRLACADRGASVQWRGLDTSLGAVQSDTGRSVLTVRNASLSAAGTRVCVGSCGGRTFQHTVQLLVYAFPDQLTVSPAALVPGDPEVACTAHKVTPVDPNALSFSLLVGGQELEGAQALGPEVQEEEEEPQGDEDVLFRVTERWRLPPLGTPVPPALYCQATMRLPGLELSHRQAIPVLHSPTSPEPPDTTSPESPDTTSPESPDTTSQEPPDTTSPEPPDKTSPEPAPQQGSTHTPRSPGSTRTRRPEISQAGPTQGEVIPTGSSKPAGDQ

T2: MAdCAM on CHO cells expressing MAdCAM (UniProt Q13477)
T2 sequence (looked up): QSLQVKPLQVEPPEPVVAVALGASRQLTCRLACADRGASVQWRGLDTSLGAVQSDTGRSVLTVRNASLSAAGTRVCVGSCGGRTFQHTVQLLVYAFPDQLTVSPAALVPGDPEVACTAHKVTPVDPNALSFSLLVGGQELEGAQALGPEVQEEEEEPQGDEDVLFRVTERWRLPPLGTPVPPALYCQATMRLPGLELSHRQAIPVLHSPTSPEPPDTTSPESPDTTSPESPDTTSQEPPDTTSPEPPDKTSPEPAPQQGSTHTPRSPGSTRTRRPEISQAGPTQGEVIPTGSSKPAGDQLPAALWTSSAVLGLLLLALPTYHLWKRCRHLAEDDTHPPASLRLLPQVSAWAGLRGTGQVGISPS


Key:
[1] = target: T1, MAdCAM (analyte of the BIAcore experiment); assay: BIAcore and JY cell adhesion assay (results of Table 2)
[2] = target: T2, MAdCAM on CHO cells expressing MAdCAM; assay: flow cytometry on CHO cells expressing MAdCAM

| Binder | binding [1] | binding [2] |
| --- | --- | --- |
| 7.16.6_S (antibody, human IgG2, kappa, V domains shown) VH: QVQLVQSGAEVKKPGASVKVSCKASGYTFTSYGINWVRQAPGQGLEWMGWISVYSGNTNYAQKVQGRVTMTADTSTSTAYMDLRSLRSDDTAVYYCAREGSSSSGDYYYGMDVWGQGTTVTVSS VL: DIVMTQTPLSLSVTPGQPASISCKSSQSLLHTDGTTYLYWYLQKPGQPPQLLIYEVSNRFSGVPDRFSGSGSGTDFTLKISRVEAEDVGIYYCMQSIQLPWTFGQGTKVEIKR | binds | binds |
| 7.16.6_LVS (antibody, human IgG2, kappa, V domains shown) VH: QVQLVQSGAEVKKPGASVKVSCKASGYTFTSYGINWVRQAPGQGLEWMGWISVYSGNTNYAQKLQGRVTMTADTSTSTAYMDLRSLRSDDTAVYYCAREGSSSSGDYYYGMDVWGQGTTVTVSS VL: DIVMTQTPLSLSVTPGQPASISCKSSQSLLHTDGTTYLYWYLQKPGQPPQLLIYEVSNRFSGVPDRFSGSGSGTDFTLKISRVEAEDVGVYYCMQSIQLPWTFGQGTKVEIKR | binds | binds |
| 7.16.6_V (antibody, human IgG2, kappa, V domains shown) VH: QVQLVQSGAEVKKPGASVKVSCKASGYTFTSYGINWVRQAPGQGLEWMGWISVYSGNTNYAQKVQGRVTMTADTSTSTAYMDLRSLRSDDTAVYYCAREGSSSSGDYYYGMDVWGQGTTVTVSS VL: DIVMTQTPLSLSVTPGQPASISCKSSQSLLHTDGTTYLYWYLQKPGQPPQLLIYEVSNRFSGVPDRFSGSGSGTDFTLKISRVEAEDVGVYYCMQNIQLPWTFGQGTKVEIKR | binds | binds |

The remaining lines, values ahead:

| binding [1] | binding [2] | Binder |
| --- | --- | --- |
| binds | binds | 7.16.6_VS (antibody, human IgG2, kappa, V domains shown) VH: QVQLVQSGAEVKKPGASVKVSCKASGYTFTSYGINWVRQAPGQGLEWMGWISVYSGNTNYAQKVQGRVTMTADTSTSTAYMDLRSLRSDDTAVYYCAREGSSSSGDYYYGMDVWGQGTTVTVSS VL: DIVMTQTPLSLSVTPGQPASISCKSSQSLLHTDGTTYLYWYLQKPGQPPQLLIYEVSNRFSGVPDRFSGSGSGTDFTLKISRVEAEDVGVYYCMQSIQLPWTFGQGTKVEIKR |
| binds | binds | 7.16.6_L (antibody, V domains shown) VH: QVQLVQSGAEVKKPGASVKVSCKASGYTFTSYGINWVRQAPGQGLEWMGWISVYSGNTNYAQKLQGRVTMTADTSTSTAYMDLRSLRSDDTAVYYCAREGSSSSGDYYYGMDVWGQGTTVTVSS VL: DIVMTQTPLSLSVTPGQPASISCKSSQSLLHTDGTTYLYWYLQKPGQPPQLLIYEVSNRFSGVPDRFSGSGSGTDFTLKISRVEAEDVGIYYCMQNIQLPWTFGQGTKVEIKR |

— patent publication US20090214558A1
